In data set [1] the target is Dicer (DICER1) (UniProt Q9UPY3). Briefly: binding assay. Conditions: protein in a lysate after overexpression, protein details: FLAG, anti-FLAG immunoprecipitated from HCT116.
Data set [2] has the same target. Briefly: EMSA. Conditions: binding reduced without Dicer; protein in a lysate after overexpression; protein details: FLAG, anti-FLAG immunoprecipitated from HCT116; variant of siRNA I (hnRNPH1).
[3] abbreviates: down-regulated in Dicer IP, stated not to bind Dicer.

Sequences of proteins named here, by UniProt entry; tags and fusion partners are left off. A change or cut given only in a name is not applied to a line headed by its entry.
UniProt Q9UPY3: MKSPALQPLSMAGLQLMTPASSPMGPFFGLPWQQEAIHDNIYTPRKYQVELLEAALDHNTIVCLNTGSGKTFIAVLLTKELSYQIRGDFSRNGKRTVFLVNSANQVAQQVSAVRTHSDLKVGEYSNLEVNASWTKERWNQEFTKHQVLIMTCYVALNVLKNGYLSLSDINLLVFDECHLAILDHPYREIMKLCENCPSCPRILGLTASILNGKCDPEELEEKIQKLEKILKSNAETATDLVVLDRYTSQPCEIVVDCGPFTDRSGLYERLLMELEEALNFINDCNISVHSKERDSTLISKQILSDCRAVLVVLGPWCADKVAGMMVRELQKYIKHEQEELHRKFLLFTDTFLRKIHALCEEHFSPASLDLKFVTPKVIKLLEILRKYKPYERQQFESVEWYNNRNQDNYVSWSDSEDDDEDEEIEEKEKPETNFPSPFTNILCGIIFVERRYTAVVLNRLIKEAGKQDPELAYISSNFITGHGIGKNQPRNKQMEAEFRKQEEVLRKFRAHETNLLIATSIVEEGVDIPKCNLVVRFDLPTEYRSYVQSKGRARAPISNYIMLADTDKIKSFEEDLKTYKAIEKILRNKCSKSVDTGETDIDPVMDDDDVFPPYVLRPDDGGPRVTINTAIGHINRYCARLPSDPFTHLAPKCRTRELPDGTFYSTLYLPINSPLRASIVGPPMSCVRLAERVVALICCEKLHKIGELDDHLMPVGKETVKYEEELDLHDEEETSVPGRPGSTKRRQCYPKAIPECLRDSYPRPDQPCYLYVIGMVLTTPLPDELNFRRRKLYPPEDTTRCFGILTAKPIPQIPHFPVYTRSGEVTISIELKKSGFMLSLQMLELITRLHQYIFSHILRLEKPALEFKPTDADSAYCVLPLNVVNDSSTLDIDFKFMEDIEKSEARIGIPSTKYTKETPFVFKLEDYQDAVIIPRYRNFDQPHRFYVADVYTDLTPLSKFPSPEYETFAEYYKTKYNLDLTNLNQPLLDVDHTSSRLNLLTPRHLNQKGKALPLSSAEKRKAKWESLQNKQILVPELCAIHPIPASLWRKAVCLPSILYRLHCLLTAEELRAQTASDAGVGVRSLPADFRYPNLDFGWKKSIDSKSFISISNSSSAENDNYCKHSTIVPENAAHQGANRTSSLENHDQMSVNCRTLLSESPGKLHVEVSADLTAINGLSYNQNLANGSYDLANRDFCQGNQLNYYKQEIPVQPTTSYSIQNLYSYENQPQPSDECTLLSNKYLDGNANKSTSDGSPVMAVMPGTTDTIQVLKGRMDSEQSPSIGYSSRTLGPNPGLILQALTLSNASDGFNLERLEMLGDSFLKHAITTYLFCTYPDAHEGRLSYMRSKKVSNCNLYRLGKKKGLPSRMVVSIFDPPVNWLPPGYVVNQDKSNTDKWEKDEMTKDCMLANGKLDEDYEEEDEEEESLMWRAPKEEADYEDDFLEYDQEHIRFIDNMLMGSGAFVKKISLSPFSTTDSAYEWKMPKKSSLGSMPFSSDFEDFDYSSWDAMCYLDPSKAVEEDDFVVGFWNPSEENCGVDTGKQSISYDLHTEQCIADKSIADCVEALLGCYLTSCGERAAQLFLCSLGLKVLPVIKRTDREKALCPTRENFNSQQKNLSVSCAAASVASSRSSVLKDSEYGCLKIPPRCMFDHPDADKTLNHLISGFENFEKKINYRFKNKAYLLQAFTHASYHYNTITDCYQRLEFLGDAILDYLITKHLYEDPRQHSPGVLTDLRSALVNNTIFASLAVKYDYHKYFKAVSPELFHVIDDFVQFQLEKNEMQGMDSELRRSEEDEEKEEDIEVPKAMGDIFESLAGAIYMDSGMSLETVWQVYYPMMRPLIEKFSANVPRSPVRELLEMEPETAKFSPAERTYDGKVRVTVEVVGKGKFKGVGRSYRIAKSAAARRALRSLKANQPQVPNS

At least one result comes from cells or an extract, where the contact may be indirect. For some assays here: The exact form of at least one protein or probe is not confirmed. For some assays here: A negative result means that nothing was seen under these conditions.

Regarding AGGCAAGAUGCUGGCAUAGCU [hsa-miR-31], the binding result with Dicer (DICER1) [1] (enriched in Dicer IP (total, nucleus, cytoplasm)) is recorded as “binds”.
For the sequence “UGAAUCAGAAGAUGAAGUCAAC / GACUUCAUCUUCUGAUUCAAG [siRNA_C]”, the binding result with Dicer (DICER1) [2] is reported as “binds”.
Still for that read-out and setting: the result for “UGAAUCAGAAGAUGAAGUCAACC / GACUUCAUCUUCUGAUUCAAG [siRNA_CC]” reads “binds”.
Regarding UGUAAACAUCCCCGACUGGAAG [hsa-miR-30d], the binding result with Dicer (DICER1) [1] (setting [3]) is “no binding”.
Consider UGUAAACAUCCUUGACUGGAAG [hsa-miR-30e], for which, in the data set with Dicer (DICER1) [1] (setting [3]), the binding result is on record as “no binding”.

Source of the values: patent US20210269798.
